## Screening data

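A panel of P. falciparum strains inside erythrocytes is exposed to compounds for three days, then a DNA-binding dye reports the amount of parasite DNA.
Each compound was titrated across a series from about 0.000037 to 29 µM.
The number is the fitted AC50, the concentration giving a half-maximal change in signal; a lower value means higher potency, whether the curve shows a decrease or an increase.
Calls follow the curve class and fit quality: every row here is inconclusive, covering signal-raising curves and weak, poorly fitted, partial or highest-dose-only inhibition curves.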

Values are in µM.
All entries here are filed as inconclusive.
Only part of the assay is shown, chiefly results filed as inconclusive.
A potency from a partial, single-point or poor curve is only a rough figure.

Result for CN(C)CCCN1c2ccccc2CCc2ccc(Cl)cc21 [TAB113] was fitted potency 10 µM (inhibitor, partial curve, poor fit). CN(C)CCCN1c2ccccc2CCc2ccc(Cl)cc21 [PC49] read fitted potency 4.467 µM (inhibitor, partial curve). For CN(C)CCCN1c2ccccc2CCc2ccc(Cl)cc21 [CP217] the result was fitted potency 7.943 µM (inhibitor, partial curve). Result for CN(C)CCCN1c2ccccc2CCc2ccc(Cl)cc21 [ATS189] was fitted potency 5.012 µM (inhibitor, partial curve). With CN(C)CCCN1c2ccccc2CCc2ccc(Cl)cc21 [CP237] the assay gave fitted potency 10 µM (inhibitor, single point). Result for CN(C)CCCN1c2ccccc2CCc2ccc(Cl)cc21 [N140] was fitted potency 7.08 µM (inhibitor, partial curve). CC1=C(C)C(=O)C(CCCCC#CCCCC#CCO)=C(C)C1=O [CP191] read fitted potency 12.59 µM (inhibitor, single point). CC1=C(C)C(=O)C(CCCCC#CCCCC#CCO)=C(C)C1=O [CP237] read fitted potency 10 µM (inhibitor, single point).

Result for CC1=C(C)C(=O)C(CCCCC#CCCCC#CCO)=C(C)C1=O [TAB109] was fitted potency 11.22 µM (inhibitor, single point). For CC1=C(C)C(=O)C(CCCCC#CCCCC#CCO)=C(C)C1=O [CP325] the result was fitted potency 19.01 µM (inhibitor, single point). For CC1=C(C)C(=O)C(CCCCC#CCCCC#CCO)=C(C)C1=O [CP260] the result was fitted potency 17.78 µM (inhibitor, single point). For CC1=C(C)C(=O)C(CCCCC#CCCCC#CCO)=C(C)C1=O [CP291] the result was fitted potency 13.46 µM (inhibitor, partial curve). For CC1=C(C)C(=O)C(CCCCC#CCCCC#CCO)=C(C)C1=O [CP262] the result was fitted potency 15.1 µM (inhibitor, single point). With CC1=C(C)C(=O)C(CCCCC#CCCCC#CCO)=C(C)C1=O [CP192] the assay gave fitted potency 19.01 µM (inhibitor, single point). CC1=C(C)C(=O)C(CCCCC#CCCCC#CCO)=C(C)C1=O [ATS95] gave fitted potency 10 µM (inhibitor, single point). CC1=C(C)C(=O)C(CCCCC#CCCCC#CCO)=C(C)C1=O [CP269] gave fitted potency 15.1 µM (inhibitor, single point).

With CC1=C(C)C(=O)C(CCCCC#CCCCC#CCO)=C(C)C1=O [CP315] the assay gave fitted potency 15.1 µM (inhibitor, single point). With CC1=C(C)C(=O)C(CCCCC#CCCCC#CCO)=C(C)C1=O [CP238] the assay gave fitted potency 11.22 µM (inhibitor, single point). With CC1=C(C)C(=O)C(CCCCC#CCCCC#CCO)=C(C)C1=O [CP266] the assay gave fitted potency 19.01 µM (inhibitor, single point). Result for CC1=C(C)C(=O)C(CCCCC#CCCCC#CCO)=C(C)C1=O [CP252] was fitted potency 11.22 µM (inhibitor, single point). For CC1=C(C)C(=O)C(CCCCC#CCCCC#CCO)=C(C)C1=O [CP268] the result was fitted potency 12 µM (inhibitor, partial curve). With CC1=C(C)C(=O)C(CCCCC#CCCCC#CCO)=C(C)C1=O [CP250] the assay gave fitted potency 17.78 µM (inhibitor, single point). CC1=C(C)C(=O)C(CCCCC#CCCCC#CCO)=C(C)C1=O [CP256] gave fitted potency 11.22 µM (inhibitor, partial curve). Result for CC1=C(C)C(=O)C(CCCCC#CCCCC#CCO)=C(C)C1=O [DFO2036] was fitted potency 15.85 µM (inhibitor, single point).

CC1=C(C)C(=O)C(CCCCC#CCCCC#CCO)=C(C)C1=O [CP247] gave fitted potency 10 µM (inhibitor, single point). CC1=C(C)C(=O)C(CCCCC#CCCCC#CCO)=C(C)C1=O [JCK] read fitted potency 12.59 µM (inhibitor, single point). CN(C)CC/C=C1\c2ccccc2CSc2ccccc21 [CP238] gave fitted potency 2.818 µM (inhibitor, partial curve).

The last 3 entries again:

| structure | setting | fitted potency (µM) | curve |
|---|---|---|---|
| `CC1=C(C)C(=O)C(CCCCC#CCCCC#CCO)=C(C)C1=O` | CP247 | 10 | inhibitor, single point |
| `CC1=C(C)C(=O)C(CCCCC#CCCCC#CCO)=C(C)C1=O` | JCK | 12.59 | inhibitor, single point |
| `CN(C)CC/C=C1\c2ccccc2CSc2ccccc21` | CP238 | 2.818 | inhibitor, partial curve |

From PubChem BioAssay record AID504749 (NCATS, 2011).